Results published in PMC9465040.
These are yes or no findings as the source states them, for the method shown. Some results given as binding are weak or reduced against the parent protein; the word gives no strength. Where a sequence is shown, tags or fusion partners need not be part of it. Each block holds one binder with its values, some of them ahead of it.

Target: T1, AtTTG1 (Arabidopsis … TESTA GLABRA1), pGBKT7 (BD) fusion (Arabidopsis thaliana) (UniProt Q9XGN1)
T1 sequence: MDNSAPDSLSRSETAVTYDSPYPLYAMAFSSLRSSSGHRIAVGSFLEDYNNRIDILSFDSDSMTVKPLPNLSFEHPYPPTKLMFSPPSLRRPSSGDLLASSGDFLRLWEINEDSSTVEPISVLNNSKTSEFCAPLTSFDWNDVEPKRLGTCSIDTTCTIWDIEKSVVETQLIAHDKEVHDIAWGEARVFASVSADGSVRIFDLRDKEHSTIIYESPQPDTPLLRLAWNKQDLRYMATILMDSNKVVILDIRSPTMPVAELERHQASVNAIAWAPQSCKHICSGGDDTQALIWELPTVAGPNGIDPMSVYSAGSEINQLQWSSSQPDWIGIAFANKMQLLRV
Assay: two-hybrid; pGADT7 (AD) and pGBKT7 (BD) plasmids co-transformed into yeast strain AH109; growth on SD-LW, SD-LWAH and SD-LWAH-X-α-gal medium; photographed at 5 day after incubation

binding: binds
B1: AtEGL3 (Arabidopsis ENHANCER OF GLABRA3), pGADT7 (AD) fusion (protein, UniProt Q9CAD0 1-596)
chain: MATGENRTVPDNLKKQLAVSVRNIQWSYGIFWSVSASQPGVLEWGDGYYNGDIKTRKTIQAAEVKIDQLGLERSEQLRELYESLSLAESSASGSSQVTRRASAAALSPEDLTDTEWYYLVCMSFVFNIGEGIPGGALSNGEPIWLCNAETADSKVFTRSLLAKSASLQTVVCFPFLGGVLEIGTTEHIKEDMNVIQSVKTLFLEAPPYTTISTRSDYQEIFDPLSDDKYTPVFITEAFPTTSTSGFEQEPEDHDSFINDGGASQVQSWQFVGEEISNCIHQSLNSSDCVSQTFVGTTGRLACDPRKSRIQRLGQIQEQSNHVNMDDDVHYQGVISTIFKTTHQLILGPQFQNFDKRSSFTRWKRSSSVKTLGEKSQKMIKKILFEVPLMNKKEELLPDTPEETGNHALSEKKRREKLNERFMTLRSIIPSISKIDKVSILDDTIEYLQDLQKRVQELESCRESADTETRITMMKRKKPDDEEERASANCMNSKRKGSDVNVGEDEPADIGYAGLTDNLRISSLGNEVVIELRCAWREGILLEIMDVISDLNLDSHSVQSSTGDGLLCLTVNCKHKGTKIATTGMIQEALQRVAWIC

binding: binds
B2: AtGL3 (Arabidopsis GLABRA3), pGADT7 (AD) fusion (protein, UniProt Q9FN69 1-637)
chain: MATGQNRTTVPENLKKHLAVSVRNIQWSYGIFWSVSASQSGVLEWGDGYYNGDIKTRKTIQASEIKADQLGLRRSEQLSELYESLSVAESSSSGVAAGSQVTRRASAAALSPEDLADTEWYYLVCMSFVFNIGEGMPGRTFANGEPIWLCNAHTADSKVFSRSLLAKSAAVKTVVCFPFLGGVVEIGTTEHITEDMNVIQCVKTSFLEAPDPYATILPARSDYHIDNVLDPQQILGDEIYAPMFSTEPFPTASPSRTTNGFDQEHEQVADDHDSFMTERITGGASQVQSWQLMDDELSNCVHQSLNSSDCVSQTFVEGAAGRVAYGARKSRVQRLGQIQEQQRNVKTLSFDPRNDDVHYQSVISTIFKTNHQLILGPQFRNCDKQSSFTRWKKSSSSSSGTATVTAPSQGMLKKIIFDVPRVHQKEKLMLDSPEARDETGNHAVLEKKRREKLNERFMTLRKIIPSINKIDKVSILDDTIEYLQELERRVQELESCRESTDTETRGTMTMKRKKPCDAGERTSANCANNETGNGKKVSVNNVGEAEPADTGFTGLTDNLRIGSFGNEVVIELRCAWREGVLLEIMDVISDLHLDSHSVQSSTGDGLLCLTVNCKHKGSKIATPGMIKEALQRVAWIC
